Reference: PubChem BioAssay AID493246 (Drosophila RNAi Screening Center, 2011)
The screen tested about 21,000 reagents; below is an unselected part of those with a known target gene and a result. Over the whole deposit, 429 (2%) were called active. 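Values are raw and not normalised between plates; calls rest on per-plate z-scores that were not deposited.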 A number with no mark means an inactive call. Reagents against one gene are numbered here. A plus sign joins genes that one reagent is predicted to hit. Reagent sequences are not shown. Not stated in the record: the amount of reagent, the time to read-out.

- Assay: 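Identify essential fly genes by loss of cell viability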 (primary screen)
- Cells: Drosophila Kc and S2R+ cells
- Reagent: long dsRNA against Drosophila genes
- Read-out: 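Cell number per well after knock-down, printed as raw plate values; calls were based on per-plate z-scores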
- Reading the numbers: Kc cell number and S2R+ cell number: higher = more cells remaining
- Call rule: 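Active when the per-plate z-score of cell number is 3 or more in the direction of fewer cells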

Knock-down of wupA (GeneID 32794) gave: Kc cell number, rep 1 = 1.49e6; Kc cell number, rep 2 = 1.31e6; S2R+ cell number, rep 1 = 1.07e6; S2R+ cell number, rep 2 = 1.13e6.
Knock-down of Obp99b (GeneID 43497) came out at: Kc cell number, rep 1 = 1.27e6; Kc cell number, rep 2 = 1.27e6; S2R+ cell number, rep 1 = 8.63e5; S2R+ cell number, rep 2 = 9.63e5.
CG30431 (GeneID 35549) #1 scored Kc cell number, rep 1 = 1.36e6; Kc cell number, rep 2 = 1.40e6; S2R+ cell number, rep 1 = 1.10e6; S2R+ cell number, rep 2 = 1.17e6.
Against CG30431 (GeneID 35549) #2, the values are Kc cell number, rep 1 = 1.84e6; Kc cell number, rep 2 = 1.93e6; S2R+ cell number, rep 1 = 1.35e6; S2R+ cell number, rep 2 = 1.31e6.
CG2698 (GeneID 40945) scored Kc cell number, rep 1 = 1.66e6; Kc cell number, rep 2 = 2.04e6; S2R+ cell number, rep 1 = 1.31e6; S2R+ cell number, rep 2 = 1.38e6.
snRNA:U1:95Cc + snRNA:U1:95Cb gave Kc cell number, rep 1 = 9.92e5; Kc cell number, rep 2 = 1.41e6; S2R+ cell number, rep 1 = 1.02e6; S2R+ cell number, rep 2 = 1.01e6.
For CG1628 (GeneID 31990) the deposit lists Kc cell number, rep 1 = 5.92e5; S2R+ cell number, rep 1 = 8.45e5.
Trf4-1 (GeneID 31795) showed Kc cell number, rep 1 = 1.58e6; Kc cell number, rep 2 = 1.71e6; S2R+ cell number, rep 1 = 1.06e6; S2R+ cell number, rep 2 = 1.19e6.
l(3)62Be (retired record) (GeneID 48504) showed Kc cell number, rep 1 = 1.61e6; Kc cell number, rep 2 = 1.56e6; S2R+ cell number, rep 1 = 1.09e6; S2R+ cell number, rep 2 = 1.10e6.
Against bai (GeneID 42996), the values are Kc cell number, rep 1 = 1.46e6; Kc cell number, rep 2 = 1.47e6; S2R+ cell number, rep 1 = 9.75e5; S2R+ cell number, rep 2 = 1.04e6.
After knock-down of CG34310 (GeneID 5740536), the screen gave Kc cell number, rep 1 = 1.70e6; Kc cell number, rep 2 = 1.91e6; S2R+ cell number, rep 1 = 1.19e6; S2R+ cell number, rep 2 = 1.32e6.
Mst57Da (GeneID 47954) gave Kc cell number, rep 1 = 1.66e6; Kc cell number, rep 2 = 1.84e6; S2R+ cell number, rep 1 = 1.02e6; S2R+ cell number, rep 2 = 1.18e6.
Knock-down of CG33270 (GeneID 2768982) gave: Kc cell number, rep 1 = 1.25e6; Kc cell number, rep 2 = 1.49e6; S2R+ cell number, rep 1 = 1.05e6; S2R+ cell number, rep 2 = 1.34e6.
Depletion of CG14086 (GeneID 40100) came out at: Kc cell number, rep 1 = 1.40e6; Kc cell number, rep 2 = 1.59e6; S2R+ cell number, rep 1 = 1.22e6; S2R+ cell number, rep 2 = 1.35e6.
Knock-down of CG13314 (GeneID 39030) resulted in: Kc cell number, rep 1 = 1.45e6; Kc cell number, rep 2 = 1.22e6; S2R+ cell number, rep 1 = 1.16e6; S2R+ cell number, rep 2 = 1.23e6.
Against CG12362 (GeneID 39193), the values are Kc cell number, rep 1 = 1.60e6; Kc cell number, rep 2 = 1.70e6; S2R+ cell number, rep 1 = 1.28e6; S2R+ cell number, rep 2 = 1.38e6.
Silencing of Su(z)2 (GeneID 36432) came out at: Kc cell number, rep 1 = 6.44e5 (active); Kc cell number, rep 2 = 1.06e6; S2R+ cell number, rep 1 = 5.75e5; S2R+ cell number, rep 2 = 6.72e5.
After knock-down of CG13113 (GeneID 34271), the record shows Kc cell number, rep 1 = 1.76e6; Kc cell number, rep 2 = 1.94e6; S2R+ cell number, rep 1 = 1.36e6; S2R+ cell number, rep 2 = 1.54e6.
For Psn (GeneID 40260) the deposit lists Kc cell number, rep 1 = 1.32e6; Kc cell number, rep 2 = 1.34e6; S2R+ cell number, rep 1 = 1.31e6; S2R+ cell number, rep 2 = 1.36e6.
Knock-down of Ance-5 (GeneID 37980) resulted in: Kc cell number, rep 1 = 1.24e6; Kc cell number, rep 2 = 1.31e6; S2R+ cell number, rep 1 = 1.05e6; S2R+ cell number, rep 2 = 1.09e6.
Knock-down of CG2528 (GeneID 35435) came out at: Kc cell number, rep 1 = 1.50e6; Kc cell number, rep 2 = 1.61e6; S2R+ cell number, rep 1 = 1.37e6; S2R+ cell number, rep 2 = 3.13e5.
